{"source": "patent US20030040614", "key": {"Eco57I D78K T862N": {"molecular_target": "T1, Eco57I D78K T862N (UniProt P25239)", "T1 sequence (looked up, limits assumed)": "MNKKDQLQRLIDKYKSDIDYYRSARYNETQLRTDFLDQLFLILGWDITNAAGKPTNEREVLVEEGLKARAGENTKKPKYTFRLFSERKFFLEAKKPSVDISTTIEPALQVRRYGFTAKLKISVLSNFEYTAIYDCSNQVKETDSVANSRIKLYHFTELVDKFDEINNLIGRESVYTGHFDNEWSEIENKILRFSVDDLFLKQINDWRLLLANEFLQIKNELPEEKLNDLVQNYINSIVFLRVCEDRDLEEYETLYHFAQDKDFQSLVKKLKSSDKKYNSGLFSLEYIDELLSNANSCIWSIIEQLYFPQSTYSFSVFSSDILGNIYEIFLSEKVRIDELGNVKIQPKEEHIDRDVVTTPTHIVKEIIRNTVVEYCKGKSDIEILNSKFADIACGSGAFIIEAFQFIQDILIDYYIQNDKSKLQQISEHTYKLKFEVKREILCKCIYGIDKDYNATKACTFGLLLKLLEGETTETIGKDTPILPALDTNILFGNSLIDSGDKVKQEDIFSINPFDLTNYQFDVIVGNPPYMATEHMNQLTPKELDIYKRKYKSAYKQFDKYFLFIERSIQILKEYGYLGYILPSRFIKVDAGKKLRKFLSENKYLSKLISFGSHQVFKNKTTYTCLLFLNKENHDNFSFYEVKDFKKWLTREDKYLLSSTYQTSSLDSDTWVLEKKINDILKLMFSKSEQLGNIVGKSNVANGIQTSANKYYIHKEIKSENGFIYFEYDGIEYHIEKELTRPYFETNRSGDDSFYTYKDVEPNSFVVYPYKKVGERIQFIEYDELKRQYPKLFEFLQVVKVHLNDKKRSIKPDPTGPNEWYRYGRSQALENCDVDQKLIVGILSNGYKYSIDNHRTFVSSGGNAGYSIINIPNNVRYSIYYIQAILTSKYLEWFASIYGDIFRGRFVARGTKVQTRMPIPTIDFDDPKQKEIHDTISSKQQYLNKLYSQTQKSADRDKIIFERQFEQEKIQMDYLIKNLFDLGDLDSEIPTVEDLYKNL", "experiment": "activity assay", "conditions": "methylation of top strand, B+ buffer, 30 uM AdoMet, 37 C 3 h, purified recombinant protein, protein details: untagged, expressed from pET21b"}, "Eco57I T862N [1]": {"molecular_target": "T2, Eco57I T862N (UniProt P25239)", "T2 sequence (looked up, limits assumed)": "T1 sequence (looked up, limits assumed) with K78D", "experiment": "activity assay", "conditions": "methylation of top strand, B+ buffer, 30 uM AdoMet, 37 C 3 h, purified recombinant protein, protein details: untagged, expressed from pET21b"}, "[2]": {"molecular_target": "T3, Eco57I restriction endonuclease (wild type) (UniProt P25239)", "T3 sequence (looked up, limits assumed)": "T1 sequence (looked up, limits assumed) with K78D, N862T", "experiment": "activity assay", "conditions": "methylation of top strand; bottom strand 406; B+ buffer, 30 uM AdoMet, 37 C 3 h; purified native protein; protein details: MBI Fermentas"}, "Eco57I D78K": {"molecular_target": "T4, Eco57I D78K (UniProt P25239)", "T4 sequence (looked up, limits assumed)": "T1 sequence (looked up, limits assumed) with N862T", "experiment": "activity in cells", "conditions": "protein in cells, protein details: expressed from pET21b, only the site is given"}, "Eco57I T862N [3]": {"molecular_target": "T2, Eco57I T862N", "experiment": "enzyme reaction in vitro", "conditions": "Mg2+, purified recombinant protein, protein details: untagged, expressed from pET21b, label: 33P, only the site is given"}}, "note": "Positions count from the first letter of the chain named. Where a protein sequence is shown, tags need not be part of it. Construct, isoform or probe ends are uncertain for at least one entry. For part of these data: Negatives hold for the conditions tested.", "data": [{"sequence": "AGTTCTGAAGCATCGTTCACCGGTTACAAC / TGGTTGTAACCGGTAACGGATGCTTCAGAACTTCTC [duplex #2 Eco57I site]", "values": [{"measurement": "activity on this sequence (3H radioactivity (units not stated))", "setting": "Eco57I D78K T862N; bottom strand 278", "value": 10200}, {"measurement": "activity on this sequence (3H radioactivity (units not stated))", "setting": "Eco57I T862N [1]; bottom strand 198", "value": 17900}, {"measurement": "activity on this sequence (3H radioactivity (units not stated))", "setting": "[2]", "value": 21800}]}, {"sequence": "AGTTCTGGAGCATCGTTCACCGGTTACAAC / TGGTTGTAACCGGTAACGGATGCTCCAGAACTTCTC [duplex #1 GsuI site]", "values": [{"measurement": "activity on this sequence (3H radioactivity (units not stated))", "setting": "Eco57I D78K T862N; bottom strand 920, variant of duplex #2 Eco57I site", "value": 32200}, {"measurement": "activity on this sequence (3H radioactivity (units not stated))", "setting": "Eco57I T862N [1]; bottom strand 980, variant of duplex #2 Eco57I site", "value": 30600}]}, {"sequence": "CTGAAG (double strand) [Eco57I recognition site in plasmid]", "values": [{"measurement": "activity on this sequence", "setting": "Eco57I D78K; plasmid protected from Eco57I cleavage by methylation", "value": "active"}]}, {"sequence": "CTGGAG (double strand) [GsuI recognition site in plasmid]", "values": [{"measurement": "activity on this sequence", "setting": "Eco57I D78K; plasmid remains sensitive to GsuI, site not methylated", "value": "not active"}]}, {"sequence": "TAATAGACTGGATGGAGGCGCTGGAGCCGGTGAGCGTGGGTC (double strand) [pACYC177 GsuI site region (position 454)]", "values": [{"measurement": "activity on this sequence", "setting": "Eco57I T862N [3]; cleaves 16/14 nt from CTGGAG", "value": "active"}]}, {"sequence": "TCCCTTTTTTGCGGCATTTTGCTGAAGATCAGTTGGGTGCACGA (double strand) [pACYC177 Eco57I site region (position 3798)]", "values": [{"measurement": "activity on this sequence", "setting": "Eco57I T862N [3]; cleaves 16 or 17 / 14 or 15 nt from CTGAAG", "value": "active"}]}]}
